Results deposited as PubChem BioAssay AID504804 (Drosophila RNAi Screening Center, 2011)
In all, the deposit lists about 19,000 reagents; shown is an unselected part of those with a known target gene and a result. In the full data, 47 (0.25%) got an active call. 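Signals are raw, not normalised; exact z-scores behind calls not deposited; actives needed confirmation, so some wells reaching 2 SD are inactive.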 Entries without a mark were called inactive. Reagent sequences are not shown.

Test: 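Knock-downs shielding fly cells from apoptosis caused by DNA damage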 (primary screen)
Cell system: Drosophila Kc cells
Reagent: long dsRNA against Drosophila genes, 0.5 µg dsRNA per well
Duration: 96 h (48 h knock-down, then 48 h drug)
Conditions: doxorubicin 5 µg/ml for 48 h, added 48 h after dsRNA
Read-out: 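Viability measured as cellular ATP by luminescence after 48 h knock-down then 48 h doxorubicin at 5 µg/ml; unnormalised plate counts for each replicate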
Reading the numbers: raw ATP luminescence: higher = more viable cells, protection from doxorubicin
Call rule: 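Active when both duplicate wells lie at least 2 SD above the plate mean and protection is confirmed by rescreening and independent dsRNAs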

CG31206 [DRSC13388]
- raw ATP luminescence, replicate 1: 2.01e5
- raw ATP luminescence, replicate 2: 2.01e5

CG7514 [DRSC08597]
- raw ATP luminescence, replicate 1: 80433
- raw ATP luminescence, replicate 2: 99017

CG11379 [DRSC18629]
- raw ATP luminescence, replicate 1: 66940
- raw ATP luminescence, replicate 2: 50220

mus304 (mutagen-sensitive 304) [DRSC11372]
- raw ATP luminescence, replicate 1: 91463
- raw ATP luminescence, replicate 2: 82763

CG10651 [DRSC02086]
- raw ATP luminescence, replicate 1: 57920
- raw ATP luminescence, replicate 2: 84497

CG3604 [DRSC00618]
- raw ATP luminescence, replicate 1: 32040
- raw ATP luminescence, replicate 2: 20250

row (relative of woc) [DRSC07076]
- raw ATP luminescence, replicate 1: 49647
- raw ATP luminescence, replicate 2: 73653

topi (matotopetli) [DRSC16431]
- raw ATP luminescence, replicate 1: 61483
- raw ATP luminescence, replicate 2: 44477

CG11437 [DRSC11659]
- raw ATP luminescence, replicate 1: 64487
- raw ATP luminescence, replicate 2: 70153

Gcn5 (Gcn5 acetyltransferase) [DRSC11248]
- raw ATP luminescence, replicate 1: 24207
- raw ATP luminescence, replicate 2: 22247

CG7568 [DRSC16259]
- raw ATP luminescence, replicate 1: 51200
- raw ATP luminescence, replicate 2: 49940

Ance-2 [DRSC02539]
- raw ATP luminescence, replicate 1: 85883
- raw ATP luminescence, replicate 2: 81603

Next part; the last 2 above are carried over.
CG7568 [DRSC16259]
- raw ATP luminescence, replicate 1: 51200
- raw ATP luminescence, replicate 2: 49940

Ance-2 [DRSC02539]
- raw ATP luminescence, replicate 1: 85883
- raw ATP luminescence, replicate 2: 81603

CG14683 [DRSC17035]
- raw ATP luminescence, replicate 1: 34903
- raw ATP luminescence, replicate 2: 35227

Cyp4d8 (Cytochrome P450 4d8) [DRSC11131]
- raw ATP luminescence, replicate 1: 45003
- raw ATP luminescence, replicate 2: 38393

CG7289 [DRSC00697]
- raw ATP luminescence, replicate 1: 1.11e5
- raw ATP luminescence, replicate 2: 88170

CG32333 [DRSC08627]
- raw ATP luminescence, replicate 1: 64710
- raw ATP luminescence, replicate 2: 80353

HDAC4 (Histone deacetylase 4) [DRSC19780]
- raw ATP luminescence, replicate 1: 3.37e5
- raw ATP luminescence, replicate 2: 3.91e5

nau (nautilus) [DRSC17011]
- raw ATP luminescence, replicate 1: 55540
- raw ATP luminescence, replicate 2: 56400

eve (even skipped) [DRSC07614]
- raw ATP luminescence, replicate 1: 47177
- raw ATP luminescence, replicate 2: 1.06e5
